The target in this data set is T1, 6his-GSU1771 (UniProt Q74CA3).
T1 sequence (looked up, limits assumed): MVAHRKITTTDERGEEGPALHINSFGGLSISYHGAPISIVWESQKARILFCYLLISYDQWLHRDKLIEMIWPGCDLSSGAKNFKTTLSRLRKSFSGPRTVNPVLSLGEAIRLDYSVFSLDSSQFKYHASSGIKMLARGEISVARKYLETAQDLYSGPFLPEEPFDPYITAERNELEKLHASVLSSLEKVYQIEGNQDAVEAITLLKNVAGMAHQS
The data set is described as follows: EMSA. The note with it: 0.1-1 uM protein, control fragment N7 in same reaction; 40 mM HEPES, 8 mM MgCl2, 50 mM KCl, 1 mM DTT, 0.05% NP-40, 0.1 mg/ml BSA, 20 ul, 30 C 30 min, pH not stated; 100 ng of each fragment; 6% native PAGE in 0.5X TBE; recombinant protein; probe letters rebuilt from the primers and the genome.

From paper PMC10599522 come the findings set out here.

For at least one entry, the source does not settle the construct or the ends of the probe. Where a protein sequence is shown, tags need not be part of it.

Regarding “CGCGCAAAACAATTCAGACGCGAAGCCGGTTACCCTTCGGATGACCGGCTTTTTTGTTGCTAAAGAGGAAAACTCAGGGTTGTCTCCGACAAACCTAAACCAAAATGCAGCCCACAACATGCTGCAACAATTAACTATTTCAAAATGGTAACACCCGTAAAACATTTTGTGTTGACATTCAGATACAAGGTTTGTTAGTTCTATAGTCAGCAATTCACCAAACAAATCAGATACACGACAATACTAAACCATCCGCGAGGATGGGGCGGAAAGCCTAAGGGTCTCCCTGAGACAGCCGGGTCGCCGAAATATCTGAACGATATCAGGCCCCGGCTTTTTTGTGCCCGGGCTGCCGGATCGTTCTGATCCGGTACACTACCACGCGCTCAGG (double strand) [pgcA promoter]”, the binding result is “binds”.
